# Experimental data: PubChem BioAssay AID493014 (National Center for Advancing Translational Sciences (NCATS), 2011)
# The list shows a part of the results. These are further read-outs of the screen, such as a control signal, another cell line or another target. No call is given for them. Compounds called inactive in the main read-out are mostly missing here. Potencies come from curve fits of mixed quality, noted in brackets.
# Assay: qHTS Assay to Find Inhibitors of Chronic Active B-Cell Receptor Signaling
# Conditions: ABC-DLBCL IkBa-CBG/CBR reporter, luminescence ratio (green luciferase fused to IkBa over red control in TMD8 lymphoma cells), 4 h
# How it was run: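 TMD8 ABC-DLBCL cells carrying doxycycline-inducible green luciferase fused to IkappaBalpha plus unfused red luciferase were exposed to compounds (up to 46 uM) for 4 hrs at 37C. Activity came from the overlap-corrected green/red luminescence ratio.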
# [1] = measured here: CBR red luminescence, cell number
Structure (SMILES),AC50 [1],AC50 (measured here: IkBa-CBG green luminescence)
O=C(Cn1cnc2c(nnn2Cc2ccccc2)c1=O)N1CCN(c2ccccc2)CC1,"9.2 µM [rising, single point]",–
COc1ccccc1C(=O)NNC(=O)c1ccc(NS(=O)(=O)c2cccs2)cc1,"7.94 µM [falling, partial curve]",–
Cc1sc(NC(=O)CCCC(=O)O)c(C(N)=O)c1-c1ccccc1,"3.98 µM [falling, full curve, poor fit]",–
O=C(Cn1nnc(-c2ccccc2F)n1)OCC(=O)c1ccccc1,"4.47 µM [falling, full curve]",–
Nc1c(C(=O)OCC2CCCO2)c2nc3ccccc3nc2n1C1CCCC1 (centres undefined),"2.91 µM [rising, single point]",–
Cc1ccc(CNC(=O)c2c(Nc3ccccc3C)sc(C(=O)c3ccc(F)cc3)c2N)cc1,–,"25.1 µM [falling, single point]"
O=C(Nc1ccc2snnc2c1)Nc1cccc2ccccc12,"0.731 µM [falling, full curve, poor fit]",–
C/C(CC(=O)Nc1ccc(N(C)C)cc1)=N\NC(=O)c1ccncc1,"35.5 µM [falling, single point]",–
CCOC(=O)c1ccc(N2C(=O)CC(NNC(=O)c3ccc(Br)s3)C2=O)cc1 (centres undefined),"14.1 µM [falling, single point]",–
CSc1nc(C2CC2)cc(-c2cccs2)c1C#N,"7.08 µM [rising, partial curve]",–
CCOC(=O)C1=C(c2ccccc2)Nc2ncnn2C1c1ccc(O)cc1 (centres undefined),"6.31 µM [rising, single point]",–
COc1cc(C(=O)NCC2CCCO2)ccc1OCc1ccc(Cl)cc1 (centres undefined),"3.66 µM [rising, full curve, poor fit]",–
CC(=O)c1ccc(NS(=O)(=O)Cc2ccc(Cl)cc2)cc1,"0.58 µM [rising, full curve, poor fit]",–
Oc1ccc(-c2csc(Nc3ccccn3)n2)cc1,"11.2 µM [falling, partial curve]",–
Cn1c(NN)nc2ccccc2c1=O,"2 µM [falling, single point]",–
Nc1cccc2c1C(=O)N(C(=O)/C=C/c1ccc(F)cc1)C2=O,"10 µM [falling, partial curve]",–
CC(C)NC(=O)N(C)C[C@@H]1Oc2c(NC(=O)C3CCOCC3)cccc2C(=O)N([C@@H](C)CO)C[C@H]1C,"32.6 µM [rising, partial curve, poor fit]",–
COCCNC(=O)CSc1c2c(nc3ccc(Cl)cc13)CCCC2,"3.16 µM [falling, full curve]",–
CCOC(CCc1c(C)nc(NC(C)=O)[nH]c1=O)OCC,"35.5 µM [rising, single point]",–

# Taken from above:
# Value for `COc1ccccc1C(=O)NNC(=O)c1ccc(NS(=O)(=O)c2cccs2)cc1` under AC50 [1]: 7.94 µM [falling, partial curve]
# Value for `CSc1nc(C2CC2)cc(-c2cccs2)c1C#N` under AC50 [1]: 7.08 µM [rising, partial curve]
